According to patent US10005721B2, “Dimethylbenzoic acid compounds” (Eli Lilly and Company, priority 2013, dated 2018):
Some results were stated once for a whole list of compounds, not compound by compound.

By UniProt entry, the sequences of proteins in these tests, tags left out. Where a name states a change or a piece, a line headed by the entry shows the natural chain unless it says otherwise.
UniProt P35408: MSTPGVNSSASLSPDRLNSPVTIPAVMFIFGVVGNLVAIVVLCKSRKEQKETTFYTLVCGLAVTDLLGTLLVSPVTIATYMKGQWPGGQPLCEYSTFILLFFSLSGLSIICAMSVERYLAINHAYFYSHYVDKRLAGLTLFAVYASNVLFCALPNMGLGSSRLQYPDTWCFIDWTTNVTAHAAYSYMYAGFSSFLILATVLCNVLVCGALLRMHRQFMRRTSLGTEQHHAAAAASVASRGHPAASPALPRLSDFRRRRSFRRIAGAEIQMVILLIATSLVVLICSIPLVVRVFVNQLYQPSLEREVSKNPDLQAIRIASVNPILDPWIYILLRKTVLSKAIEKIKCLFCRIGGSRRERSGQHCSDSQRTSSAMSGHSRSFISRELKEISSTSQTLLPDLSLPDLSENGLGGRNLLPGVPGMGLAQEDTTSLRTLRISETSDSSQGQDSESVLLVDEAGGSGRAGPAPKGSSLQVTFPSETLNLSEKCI

Target: T1, human EP4 (Homo sapiens, UniProt P35408)
T1 construct: expressed in transfected cells
Assay: In vitro binding to human EP4 ([3H]-PGE2 displacement, membranes)
Settings: HEK293 membranes, read-out: Ki value for hEP4
Procedure: hEP1 and hEP4 membranes are prepared from recombinant HEK293 cells stably expressing human EP1 (Genbank accession number AY275470) or EP4 (Genbank accession number AY429109) receptors. hEP2 and hEP3 membranes are prepared from HEK293 cells transiently transfected with EP2 (Genbank accession number AY275471) or EP3 (isoform VI: Genbank accession number AY429108) receptor plasmids. Frozen cell pellets are homogenized in homogenization buffer using a Teflon/glass homogenizer. Membrane protein is aliquoted and quick frozen on dry ice prior to storage at −80° C. Homogenization buffer contained 10 mM Tris-HCl, pH 7.4, 250 mM sucrose, 1 mM EDTA, 0.3 mM indomethacin and plus Complete™, with EDTA, obtained from Roche Molecular Biochemicals (Catalog Number 1 697 498).
Kd values for [^3H]-PGE2 binding to each receptor are determined by saturation binding studies or homologous competition. Compounds are tested in a 96-well format using a three-fold dilution series to generate a 10-point curve. Diluted compound is incubated with 20 μg/well EP1, 10 μg/well EP2, 1 μg/well EP3 or 10 to 20 μg/well EP4 membrane for 90 minutes at 25° C. in the presence of 0.3 to 0.5 nM [^3H]-PGE2 (PerkinElmer, 118 to 180 Ci/mmol). The binding reaction is performed in 200 μL MES buffer (10 mM MES pH 6.0 with KOH, 10 mM MgCl2 and 1 mM EDTA) using 0.5 mL polystyrene 96-well deep-well plates. Non-specific binding is calculated by comparing binding in the presence and absence of 2 μM of PGE2. The membranes are harvested by filtration (TomTek harvester), washed 4 times with cold buffer (10 mM MES pH 6.0 with KOH, 10 mM MgCl2), dried in a 60° C. oven, and the radioactivity is quantified as counts per minute (CPM) using a TopCount detector. Percent specific binding is calculated as the percent of the binding in the absence of any inhibitor, corrected for binding in the presence of 2 uM of PGE2. Data are analyzed using a 4-parameter nonlinear logistic equation (ABase Equation 205) as shown: y=(A+((B−A)/(1+((C/x)^D)) where, y=% specific inhibition, A=bottom of the curve; B=top of the curve; C=relative IC50=concentration causing 50% inhibition based on the range of the data from top to bottom; D=Hill, Slope=slope of the curve. Ki conversion from IC50 Values (Ki=IC50/(1+[L]/Kd) where [L] is the ligand concentration). Results are expressed as the geometric mean±standard deviation; n=number of independent determinations. The standard deviation is calculated by the delta method, being SDlog Ki×geometric mean×ln(10).

Structure (SMILES)	Ki
Cc1cc(C(=O)O)cc(C)c1NC(=O)c1cc(-c2cccc(CO)c2)ccc1F [Example 14, 4-[[2-Fluoro-5-[3-(hydroxymethyl)phenyl]benzoyl]amino]-3,5-dimethyl-benzoic acid]	< 1 µM
Cc1ccc(C(=O)O)c(C)c1NC(=O)c1cc(-c2cccc(CO)c2)ccc1F [Example 13, 3-[[2-Fluoro-5-[3-(hydroxymethyl)phenyl]benzoyl]amino]-2,4-dimethyl-benzoic acid]	< 1 µM
Cc1ccc(-c2ccc(Cl)cc2)nc1C(=O)Nc1c(C)ccc(C(=O)O)c1C [Example 16, 3-[[6-(4-Chlorophenyl)-3-methyl-pyridine-2-carbonyl]amino]-2,4-dimethyl-benzoic acid]	< 1 µM
Cc1ccc(-c2cccc(CO)c2)nc1C(=O)Nc1c(C)ccc(C(=O)O)c1C [Example 22, 3-[[6-[3-(Hydroxymethyl)phenyl]-3-methyl-pyridine-2-carbonyl]amino]-2,4-dimethyl-benzoic acid]	< 1 µM
Cc1ccc(-c2ccc3c(c2)OCO3)nc1C(=O)Nc1c(C)ccc(C(=O)O)c1C [Example 18, 3-[[6-(1,3-Benzodioxol-5-yl)-3-methyl-pyridine-2-carbonyl]amino]-2,4-dimethyl-benzoic acid]	< 1 µM
Cc1ccc(-c2cccc(CO)c2)cc1C(=O)Nc1c(C)cc(C(=O)O)cc1C [Example 3, 4-[[5-[3-(hydroxymethyl)phenyl]-2-methyl-benzoyl]amino]-3,5-dimethyl-benzoic acid]	< 1 µM
Cc1cc(C(=O)O)cc(C)c1NC(=O)c1cc(-c2cccc(CO)c2)ccc1C(F)(F)F [Example 12, 4-[[5-[3-(Hydroxymethyl)phenyl]-2-(trifluoromethyl)benzoyl]amino]-3,5-dimethyl-benzoic acid]	< 1 µM
Cc1ccc(-c2cccc(CO)c2)nc1C(=O)Nc1c(C)cnc(C(=O)O)c1C [Example 26, 4-[[6-[3-(Hydroxymethyl)phenyl]-3-methyl-pyridine-2-carbonyl]amino]-3,5-dimethyl-pyridine-2-carboxylic acid]	< 1 µM
Cc1ccc(-c2cccc(CCO)c2)nc1C(=O)Nc1c(C)ccc(C(=O)O)c1C [Example 8, 3-[[6-[3-(2-Hydroxyethyl)phenyl]-3-methyl-pyridine-2-carbonyl]amino]-2,4-dimethyl-benzoic acid]	< 1 µM
Cc1ccc(C(=O)O)c(C)c1NC(=O)c1cc(-c2cccc(CO)c2)cc2ccccc12 [Example 42, 3-[[3-[3-(Hydroxymethyl)phenyl]naphthalene-1-carbonyl]amino]-2,4-dimethyl-benzoic acid]	< 1 µM
Cc1ccc(-c2cccc(OC(F)(F)F)c2)nc1C(=O)Nc1c(C)ccc(C(=O)O)c1C [Example 32, 2,4-Dimethyl-3-[[3-methyl-6-[3-(trifluoromethoxy)phenyl]pyridine-2-carbonyl]amino]benzoic acid]	< 1 µM
Cc1ccc(C(=O)O)c(C)c1NC(=O)c1cc(-c2ccccc2)cc2ccccc12 [Example 41, 2,4-Dimethyl-3-[(3-phenylnaphthalene-1-carbonyl)amino] benzoic acid]	< 1 µM
Cc1ccc(-c2ccc3c(c2)OCO3)nc1C(=O)Nc1c(C)cc(C(=O)O)cc1C [Example 25, 4-[[6-(1,3-Benzodioxol-5-yl)-3-methyl-pyridine-2-carbonyl]amino]-3,5-dimethyl-benzoic acid]	< 1 µM
Cc1cc(C(=O)O)cc(C)c1NC(=O)c1cc(-c2cccc(CO)c2)cc2ccccc12 [Example 40, 4-[[3-[3-(Hydroxymethyl)phenyl]naphthalene-1-carbonyl]amino]-3,5-dimethyl-benzoic acid]	< 1 µM
Cc1ccc(C(=O)O)c(C)c1NC(=O)c1cc(-c2ccccc2)ccc1C(F)(F)F [Example 6, 3-[[5-phenyl-2-(trifluoromethyl)benzoyl]amino]-2,4-dimethyl-benzoic acid]	< 1 µM
Cc1ccc(-c2cccc(C(F)(F)F)c2)nc1C(=O)Nc1c(C)cc(C(=O)O)cc1C [Example 34, 3-[[6-(3-Methoxyphenyl)-3-methyl-pyridine-2-carbonyl]amino]-2,4-dimethyl-benzoate]	< 1 µM
Cc1ccc(-c2ccc(CO)cc2)nc1C(=O)Nc1c(C)cc(C(=O)O)cc1C [Example 23, 4-[[6-[4-(Hydroxymethyl)phenyl]-3-methyl-pyridine-2-carbonyl]amino]-3,5-dimethyl-benzoic acid]	< 1 µM

Structure (SMILES)	Ki
Cc1ccc(C(=O)O)c(C)c1NC(=O)c1cc(-c2cccc(CO)c2)ccc1C(F)(F)F [Example 5, 3-[[5-[3-(hydroxymethyl)phenyl]-2-(trifluoromethyl)benzoyl]amino]-2,4-dimethyl-benzoic acid]	< 1 µM
Cc1ccc(C(=O)O)c(C)c1NC(=O)c1nc(-c2cccc(CO)c2)ccc1C(F)(F)F [Example 11, 3-[[6-[3-(Hydroxymethyl)phenyl]-3-(trifluoromethyl)pyridine-2-carbonyl]amino]-2,4-dimethyl-benzoic acid]	< 1 µM
COc1cccc(-c2ccc(C)c(C(=O)Nc3c(C)cc(C(=O)O)cc3C)n2)c1 [Example 28, 4-[[6-(3-Methoxyphenyl)-3-methyl-pyridine-2-carbonyl]amino]-3,5-dimethyl-benzoic acid]	< 1 µM
Cc1ccc(-c2ccccc2)nc1C(=O)Nc1c(C)ccc(C(=O)O)c1C [Example 15, 2,4-Dimethyl-3-[(3-methyl-6-phenyl-pyridine-2-carbonyl)amino]benzoic acid]	< 1 µM
Cc1cc(C(=O)O)cc(C)c1NC(=O)c1cc(-c2cccc(CO)c2)nc2ccccc12 [Example 37, 4-[[2-[3-(Hydroxymethyl)phenyl]quinoline-4-carbonyl]amino]-3,5-dimethyl-benzoic acid]	< 1 µM
COc1cccc(-c2ccc(C)c(C(=O)Nc3c(C)ccc(C(=O)O)c3C)n2)c1 [Example 33, 3-[[6-(3-Methoxyphenyl)-3-methyl-pyridine-2-carbonyl]amino]-2,4-dimethyl-benzoic acid]	< 1 µM
Cc1cc(C(=O)O)cc(C)c1NC(=O)c1cc(-c2ccccc2)nc2ccccc12 [Example 36, 3,5-Dimethyl-4-[(2-phenylquinoline-4-carbonyl)amino]benzoic acid]	< 1 µM
Cc1ccc(-c2cccc(CCO)c2)cc1C(=O)Nc1c(C)cc(C(=O)O)cc1C [Example 4, 4-[[5-[3-(2-hydroxyethyl)phenyl]-2-methyl-benzoyl]amino]-3,5-dimethyl-benzoic acid]	< 1 µM
COCc1cccc(-c2ccc(C)c(C(=O)Nc3c(C)ccc(C(=O)O)c3C)n2)c1 [Example 7, 3-[[6-[3-(Methoxymethyl)phenyl]-3-methyl-pyridine-2-carbonyl]amino]-2,4-dimethyl-benzoic acid]	< 1 µM
Cc1cccc(-c2ccc(C)c(C(=O)Nc3c(C)ccc(C(=O)O)c3C)n2)c1 [Example 31, 2,4-Dimethyl-3-[[3-methyl-6-(m-tolyl)pyridine-2-carbonyl]amino]benzoic acid]	< 1 µM
Cc1ccc(-c2cccc(CCO)c2)nc1C(=O)Nc1c(C)cc(C(=O)O)cc1C [Example 24, 4-[[6-[3-(2-Hydroxyethyl)phenyl]-3-methyl-pyridine-2-carbonyl]amino]-3,5-dimethyl-benzoic acid]	< 1 µM
Cc1ccc(-c2cccc(CO)c2)cc1C(=O)Nc1c(C)ccc(C(=O)O)c1C [Example 1, 3-[[5-[3-(Hydroxymethyl)phenyl]-2-methyl-benzoyl]amino]-2,4-dimethyl-benzoic acid]	< 1 µM
Cc1ccc(-c2ccc(F)c(CO)c2)nc1C(=O)Nc1c(C)cc(C(=O)O)cc1C [Example 21, 4-[[6-[4-fluoro-3-(hydroxymethyl)phenyl]-3-methyl-pyridine-2-carbonyl]amino]-3,5-dimethyl-benzoic acid]	< 1 µM
Cc1ccc(-c2ccc(F)c(CO)c2)nc1C(=O)Nc1c(C)ccc(C(=O)O)c1C [Example 20, 3-[[6-[4-Fluoro-3-(hydroxymethyl)phenyl]-3-methyl-pyridine-2-carbonyl]amino]-2,4-dimethyl-benzoic acid]	< 1 µM
Cc1cc(C(=O)O)cc(C)c1NC(=O)c1cc(-c2ccccc2)cc2ccccc12 [Example 39, 3,5-Dimethyl-4-[(3-phenylnaphthalene-1-carbonyl)amino]benzoic acid]	< 1 µM
Cc1ccc(-c2cccc(CO)c2)nc1C(=O)Nc1c(C)cc(C(=O)O)nc1C [Example 27, 5-[[6-[3-(Hydroxymethyl)phenyl]-3-methyl-pyridine-2-carbonyl]amino]-4,6-dimethyl-pyridine-2-carboxylic acid]	< 1 µM
